# According to PubChem BioAssay AID540276 (National Center for Advancing Translational Sciences (NCATS), 2011):
# In all, about 300,000 compounds went through this assay and about 5,400 (1.8%) were called active. The inconclusive results got no clear call from the source; some entries with a clear call stand among them for comparison. Calls follow the shape of the full dose curve; tested in HEK293 cells. Potencies beside an inconclusive call are fits to weak or partial responses and may not hold up.
# Assay: qHTS for inhibitors of binding or entry into cells for Marburg Virus
# Conditions: Marburg virus pseudotyped entry inhibition, cell reporter; activity change, negative = inhibition: at 37.8 µM (top of the series) unless noted
# % is scaled to controls: 0 for no effect and ±100 for the full control effect; potency is read from the fitted curve at half-maximal effect.
Compound,Potency,"activity change, negative = inhibition"
CC(=O)Oc1ccc(C(=O)[C@H]2[C@H]3C(=O)N(c4ccccc4)C(=O)[C@H]3[C@@H]3C=CC=NN32)cc1,"inconclusive: 18.4 µM [activator, partial curve, poor fit]",
COc1ccc(NC(=O)C(NS(=O)(=O)c2cccs2)C(C)C)cc1Cl (stereo not drawn),,inactive: 3.12% [at 46.1 µM]
O=C(N/N=C/c1ccc([N+](=O)[O-])cc1)c1ccc2nc[nH]c2c1,"inconclusive: 35.5 µM [inhibitor, partial curve, poor fit]",
O=c1[nH]c2cc3c(cc2cc1CN(Cc1cccs1)Cc1nnnn1Cc1ccco1)OCCO3,"inconclusive: 35.5 µM [inhibitor, single point]",
Cc1c(Cl)cccc1N/C(=N/S(=O)(=O)c1cccs1)c1ccccc1,"inconclusive: 3.55 µM [inhibitor, single point]",
Cc1ccc(C(C(=O)NCc2ccco2)N(C(=O)Cc2cccs2)c2cccnc2)cc1 (stereo not drawn),"inconclusive: 7.94 µM [activator, single point]",
CCN(CC)c1ccc(NC(=O)CSc2nc(C3CC3)nc3ccccc23)cc1C,active: 4.47 µM,
COc1ccccc1OCCNC(=O)c1ccc(C)c(S(=O)(=O)N2CCOCC2)c1,,inactive: 0.169%
O=C(Nc1ccc(OC(F)F)cc1)c1cc(S(=O)(=O)N2CCOCC2)ccc1F,"inconclusive: 35.5 µM [activator, single point]",
COc1ccc(-c2noc(CCC(=O)NCCCN3CCC(C)CC3)n2)cc1,"inconclusive: 10 µM [inhibitor, partial curve, poor fit]",
O=C(NCCCN1CCOCC1)c1cc2c(=O)[nH]c3ccccc3c2s1,active: 10 µM,
COc1ccc(NC(=O)CSc2ncccc2C(=O)OC(C)C)cc1OC,"inconclusive: 5.8 µM [inhibitor, single point]",
Cc1cc(C)nc(N2CCC(C(=O)NCc3ccccc3F)CC2)n1,,inactive: 3.94% [at 46.1 µM]
N#Cc1ccc(CN2CCN(C(=O)CN3C(=O)NC4(CCCC4)C3=O)CC2)cc1,,inactive: 3.74%
CC(C)N1C(=O)CN(C2CCCCCC2)C(=O)C1c1ccccc1F (stereo not drawn),"inconclusive: 6.51 µM [activator, partial curve, poor fit]",
Cc1ccc(Nc2nn3c(=O)c4cc5c(cc4nc3s2)OCO5)cc1Cl,"inconclusive: 35.5 µM [activator, partial curve, poor fit]",
CN(C)CCNC(=S)Nc1ccc(F)c(F)c1F,"inconclusive: 35.5 µM [activator, single point]",
COC(=O)c1cc(CNC(=O)C2CC(=O)N(c3ccc4c(c3)OCCO4)C2)ccc1OC (stereo not drawn),"inconclusive: 1.78 µM [inhibitor, partial curve, poor fit]",

# Reformatted: results already given
Compound | Potency | activity change, negative = inhibition
COc1ccc(NC(=O)CSc2ncccc2C(=O)OC(C)C)cc1OC | inconclusive: 5.8 µM [inhibitor, single point] | 
Cc1cc(C)nc(N2CCC(C(=O)NCc3ccccc3F)CC2)n1 |  | inactive: 3.94% [at 46.1 µM]
